In doi:10.1101/2022.09.13.507836 one finds binding data, which are given here for one substance.

The test concerns the target T1, SE (bait of the IP-MS of SE complexes) (Arabidopsis) (UniProt Q9ZVD0).
T1 sequence: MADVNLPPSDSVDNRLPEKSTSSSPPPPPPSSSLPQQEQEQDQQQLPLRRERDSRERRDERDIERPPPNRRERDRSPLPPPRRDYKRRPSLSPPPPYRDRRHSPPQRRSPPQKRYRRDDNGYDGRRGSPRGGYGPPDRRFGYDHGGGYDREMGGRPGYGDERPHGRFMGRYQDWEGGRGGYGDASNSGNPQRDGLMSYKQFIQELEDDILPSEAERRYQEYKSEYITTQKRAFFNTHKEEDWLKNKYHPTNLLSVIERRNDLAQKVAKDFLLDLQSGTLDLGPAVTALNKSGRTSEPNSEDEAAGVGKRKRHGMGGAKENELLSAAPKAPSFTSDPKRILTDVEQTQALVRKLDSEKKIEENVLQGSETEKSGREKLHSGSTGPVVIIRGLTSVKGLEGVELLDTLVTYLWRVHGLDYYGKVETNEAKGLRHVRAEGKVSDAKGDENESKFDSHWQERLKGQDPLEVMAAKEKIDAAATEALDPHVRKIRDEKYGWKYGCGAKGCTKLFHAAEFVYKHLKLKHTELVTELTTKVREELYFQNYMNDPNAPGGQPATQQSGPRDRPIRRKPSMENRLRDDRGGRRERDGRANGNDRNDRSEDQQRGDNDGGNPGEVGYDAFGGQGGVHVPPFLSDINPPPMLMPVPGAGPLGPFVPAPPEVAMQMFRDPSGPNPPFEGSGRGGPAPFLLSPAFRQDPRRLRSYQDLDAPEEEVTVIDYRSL
The test is described as follows: affinity purification with mass spectrometry.

These are yes or no findings as the source states them, for the method shown. In cells and extracts the contact can be indirect. A yes stands for co-enrichment or nearness to the bait. Other partners may have been found.

“DSPPL9/SAID1 (recovered in the IP-MS of SE complexes) (Arabidopsis)”: the binding entry is “binds”.
